For two substances, binding results are on record in article doi:10.1101/2023.02.28.530536.

Chains of the proteins cited; added tags and fusions are not shown.
UniProt Q38912: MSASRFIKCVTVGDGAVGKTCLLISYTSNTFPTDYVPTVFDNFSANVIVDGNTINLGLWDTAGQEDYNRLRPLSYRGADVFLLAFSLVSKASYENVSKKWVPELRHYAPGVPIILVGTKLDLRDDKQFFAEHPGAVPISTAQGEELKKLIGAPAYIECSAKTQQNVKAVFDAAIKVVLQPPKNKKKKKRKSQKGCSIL
UniProt Q38919: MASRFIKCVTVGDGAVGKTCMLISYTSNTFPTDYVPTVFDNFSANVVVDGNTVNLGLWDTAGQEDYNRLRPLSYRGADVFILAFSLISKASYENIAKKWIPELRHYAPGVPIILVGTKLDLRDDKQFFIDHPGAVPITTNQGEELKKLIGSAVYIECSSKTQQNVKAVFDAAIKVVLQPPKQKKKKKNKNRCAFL

Results are given in words; binding and its absence hold for the method and conditions named. In cells and extracts the contact can be indirect. Some binding calls cover weakened binding; strength is not graded here. Sequences can lack the tags named with a protein.

This assay concerns the target T1, MBP-RIC1 (Arabidopsis) (UniProt F4IVV0).
T1 sequence: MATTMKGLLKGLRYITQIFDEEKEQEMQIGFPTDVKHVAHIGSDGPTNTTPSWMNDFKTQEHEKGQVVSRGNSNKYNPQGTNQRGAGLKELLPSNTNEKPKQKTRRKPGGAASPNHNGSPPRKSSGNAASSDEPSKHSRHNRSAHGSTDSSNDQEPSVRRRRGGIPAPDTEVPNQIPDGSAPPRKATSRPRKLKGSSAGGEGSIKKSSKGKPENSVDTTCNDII
The assay is described as follows: pull-down.

With GFP-ROP6 (from UniProt Q38912 1-198), the binding entry is given as “binds”. Turning to GFP-ROP2 (from UniProt Q38919 1-195), the binding result is reported as “binds”.
